Assay results from the supplement of paper PMC12823440, “Inhibitors supercharge kinase turnover through native proteolytic circuits” (Nature, 2025).
Counter-ions that a name gives are not always drawn. This is one part of the list. The calls rarely recur for the same compound in another form.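 Kinases, fused to nanoluciferase, were expressed in K562 cells; luminescence was measured every 4 h from 2 to 18 h as percent of control (DMSO = 100%, positive control = 0%). A time point is decreased if signal falls significantly (2 sigma). Hits were called by the authors by a rule that is not shown; the count of time points alone does not decide it.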

These compounds were tested against EGFR_G719S_T790M (UniProt P00533) (assay: kinase-Nluc reporter destabilization hit call (1 = scored as downregulated) (binary); higher = compound decreases kinase abundance). Details: K562; 2-18 h.

Q: Which “kinase-Nluc reporter destabilization hit call” value does the source give for `CC1=C[C@]23C(=O)[C@@H](C=C(CO)[C@@H](O)[C@]2(O)[C@H]1O)[C@H]1[C@@H](C[C@H]3C)C1(C)C` [Ingenol] (10 µM) here?
A: Its value is inactive: 0.

Q: With `C=C[C@H]1CN2CC[C@]3(C(=O)Nc4ccccc43)[C@@H]2C[C@@H]1/C(=C\OC)C(=O)OC` [Corynoxeine] (2 µM) as the compound, how does the “kinase-Nluc reporter destabilization hit call” value read?
A: The value was inactive: 0.

Q: Which “kinase-Nluc reporter destabilization hit call” value does the source give for `O=C(O)c1sc2cc(Cl)ccc2c1Cl` (10 µM) here?
A: The value was inactive: 0.

Q: For `C[C@H]1CC[C@]2(NC1)O[C@H]1C[C@H]3[C@@H]4CC[C@H]5C[C@@H](O)CC[C@]5(C)[C@H]4CC[C@]3(C)[C@H]1[C@@H]2C` [Tomatidine (hydrochloride)] (10 µM), which “kinase-Nluc reporter destabilization hit call” value is on record?
A: The value was inactive: 0.

Q: `O=C1C=CC[C@@H]2[C@H]3CCCN4CCC[C@@H](CN12)[C@@H]34` [Sophocarpine (monohydrate)] (2.5 µM) was tested. Which “kinase-Nluc reporter destabilization hit call” value did it give?
A: The value was inactive: 0.

Q: Which “kinase-Nluc reporter destabilization hit call” value does the source give for `Cc1n[nH]cc1-c1cc2nc([C@@H]3CC4CCN3CC4)[nH]c(=O)c2s1` [Simurosertib] (2.5 µM) here?
A: The value was inactive: 0.

Q: How did the “kinase-Nluc reporter destabilization hit call” value turn out when `O=C(N[C@@H](COc1ccc2[nH]c(=O)[nH]c2c1)c1ccccc1)c1cccn(Cc2ccc(F)c(F)c2)c1=O` (2.5 µM) was run?
A: The value was inactive: 0.

Q: For `O=C(/C=C/c1ccccc1)OC[C@H]1O[C@@H](O[C@@H]2OC=C[C@H]3[C@H](O)[C@@H]4O[C@]4(CO)[C@@H]23)[C@H](O)[C@@H](O)[C@@H]1O` [Picroside I] (10 µM), which “kinase-Nluc reporter destabilization hit call” value is on record?
A: The value was inactive: 0.

Q: With `C[C@@H]1CC[C@H]2[C@@H](C)C(=O)O[C@@H]3O[C@@]4(C)CC[C@@H]1[C@]32OO4` [Artemisinin] (10 µM) as the compound, how does the “kinase-Nluc reporter destabilization hit call” value read?
A: Its value is inactive: 0.

Q: With `N#CC(C#N)=Cc1ccc([N+](=O)[O-])c(O)c1` (10 µM) as the compound, how does the “kinase-Nluc reporter destabilization hit call” value read?
A: Its value is inactive: 0.

Q: How did the “kinase-Nluc reporter destabilization hit call” value turn out when `C[C@H](CCC(=O)O)C[C@H](C)C[C@H](C)C(=O)/C=C(\O)[C@H](C)C[C@H](C)C/C=C/[C@@H](C)[C@@H](O)[C@@H](C)[C@@H](O)C[C@@H]1CC[C@@](C)([C@H]2CC[C@@](C)([C@@H](C)O)O2)O1` [Ionomycin (calcium)] (2.5 µM) was run?
A: Its value is inactive: 0.

Q: For `CC1C(=O)OC2C(O)C34C5OC(=O)C3(OC3OC(=O)C(O)C34C(C(C)(C)C)C5O)C12O` (centres undefined) [Ginkgolide C] (10 µM), which “kinase-Nluc reporter destabilization hit call” value is on record?
A: The value was inactive: 0.

Q: With `Cn1cc(C2=C(c3cn(C4CCN(Cc5ccccn5)CC4)c4ccccc34)C(=O)NC2=O)c2ccccc21` [Enzastaurin] (10 µM) as the compound, how does the “kinase-Nluc reporter destabilization hit call” value read?
A: The value was inactive: 0.

Q: How did the “kinase-Nluc reporter destabilization hit call” value turn out when `O=c1[nH]c2ccccc2n1C1CCN(Cc2ccc(-c3[nH]c4cc5ncnc5cc4nc3-c3ccccc3)cc2)CC1` [AKT inhibitor VIII] (2.5 µM) was run?
A: The value was inactive: 0.

Q: With `CCN1CCN(C(=O)Cc2ccc(Nc3ncc(F)c(Nc4ccc(C(=O)Nc5ccccc5Cl)cc4)n3)cc2)CC1` (2.5 µM) as the compound, how does the “kinase-Nluc reporter destabilization hit call” value read?
A: The value was inactive: 0.

Q: Which “kinase-Nluc reporter destabilization hit call” value does the source give for `C=CC(=O)N[C@H]1C=C(C)c2c(-c3cnc4ccccc4c3)c3c(N)ncnc3n2C1` (10 µM) here?
A: Its value is inactive: 0.

Q: Which “kinase-Nluc reporter destabilization hit call” value does the source give for `CC(C)(C)c1cc(C=C(C#N)C#N)cc(Br)c1O` (2.5 µM) here?
A: The value was inactive: 0.

Q: How did the “kinase-Nluc reporter destabilization hit call” value turn out when `CCCCNc1nc(N)c2[nH]c(=O)n(Cc3ccc(C)nc3)c2n1` (10 µM) was run?
A: Its value is inactive: 0.

Q: With `C=CC(=O)Nc1ccc2[nH]c(=O)n(C3CCN(Cc4ccc(-c5nc6cc[nH]c(=O)c6cc5-c5ccccc5)cc4)CC3)c2c1` [Borussertib] (10 µM) as the compound, how does the “kinase-Nluc reporter destabilization hit call” value read?
A: The value was inactive: 0.

Q: With `COc1ccc(N(C(=O)Oc2c(C)cccc2C)c2ccnc(Nc3ccc(N4CCN(C)CC4)cc3)n2)c(OC)c1` (2.5 µM) as the compound, how does the “kinase-Nluc reporter destabilization hit call” value read?
A: Its value is inactive: 0.

Q: Which “kinase-Nluc reporter destabilization hit call” value does the source give for `COc1ccc2c(c1)[nH]c1c(C)nccc12` [Harmine] (10 µM) here?
A: The value was inactive: 0.

Q: `O=c1cc(O)c2ccccc2o1` [4-Hydroxycoumarin] (10 µM) was tested. Which “kinase-Nluc reporter destabilization hit call” value did it give?
A: Its value is inactive: 0.

Q: How did the “kinase-Nluc reporter destabilization hit call” value turn out when `CC(=O)c1c(O)c(C)c(O)c(Cc2c(O)c3c(c(C(=O)/C=C/c4ccccc4)c2O)OC(C)(C)C=C3)c1O` [Rottlerin] (2 µM) was run?
A: The value was inactive: 0.

Q: For `C/C(O)=C(\C#N)C(=O)Nc1cc(Br)ccc1Br` (10 µM), which “kinase-Nluc reporter destabilization hit call” value is on record?
A: Its value is inactive: 0.

Q: For `Cc1ccccc1-n1c(Cn2ncc3c(N)ncnc32)nc2cccc(C)c2c1=O` (10 µM), which “kinase-Nluc reporter destabilization hit call” value is on record?
A: Its value is inactive: 0.

Q: For `COc1ccc2c(c1)/C(=C/c1cnc[nH]1)C(=O)N2` (2.5 µM), which “kinase-Nluc reporter destabilization hit call” value is on record?
A: Its value is inactive: 0.

Q: With `O=[N+]([O-])/C=C/c1ccc2c(c1)OCO2` (2.5 µM) as the compound, how does the “kinase-Nluc reporter destabilization hit call” value read?
A: The value was inactive: 0.

Each compound was assayed against EGFR_L718V (UniProt P00533) in the same assay as above. Details: K562; 2-18 h.

Q: How did the “kinase-Nluc reporter destabilization hit call” value turn out when `CC1=C[C@]23C(=O)[C@@H](C=C(CO)[C@@H](O)[C@]2(O)[C@H]1O)[C@H]1[C@@H](C[C@H]3C)C1(C)C` [Ingenol] (10 µM) was run?
A: The value was inactive: 0.

Q: Which “kinase-Nluc reporter destabilization hit call” value does the source give for `C=C[C@H]1CN2CC[C@]3(C(=O)Nc4ccccc43)[C@@H]2C[C@@H]1/C(=C\OC)C(=O)OC` [Corynoxeine] (2 µM) here?
A: Its value is inactive: 0.

Q: `O=C(O)c1sc2cc(Cl)ccc2c1Cl` (10 µM) was tested. Which “kinase-Nluc reporter destabilization hit call” value did it give?
A: The value was inactive: 0.

Q: For `C[C@H]1CC[C@]2(NC1)O[C@H]1C[C@H]3[C@@H]4CC[C@H]5C[C@@H](O)CC[C@]5(C)[C@H]4CC[C@]3(C)[C@H]1[C@@H]2C` [Tomatidine (hydrochloride)] (10 µM), which “kinase-Nluc reporter destabilization hit call” value is on record?
A: The value was inactive: 0.

Q: `O=C1C=CC[C@@H]2[C@H]3CCCN4CCC[C@@H](CN12)[C@@H]34` [Sophocarpine (monohydrate)] (2.5 µM) was tested. Which “kinase-Nluc reporter destabilization hit call” value did it give?
A: The value was inactive: 0.

Q: For `Cc1n[nH]cc1-c1cc2nc([C@@H]3CC4CCN3CC4)[nH]c(=O)c2s1` [Simurosertib] (2.5 µM), which “kinase-Nluc reporter destabilization hit call” value is on record?
A: The value was inactive: 0.

Q: For `O=C(N[C@@H](COc1ccc2[nH]c(=O)[nH]c2c1)c1ccccc1)c1cccn(Cc2ccc(F)c(F)c2)c1=O` (2.5 µM), which “kinase-Nluc reporter destabilization hit call” value is on record?
A: The value was inactive: 0.

Q: With `O=C(/C=C/c1ccccc1)OC[C@H]1O[C@@H](O[C@@H]2OC=C[C@H]3[C@H](O)[C@@H]4O[C@]4(CO)[C@@H]23)[C@H](O)[C@@H](O)[C@@H]1O` [Picroside I] (10 µM) as the compound, how does the “kinase-Nluc reporter destabilization hit call” value read?
A: The value was inactive: 0.

Q: With `C[C@@H]1CC[C@H]2[C@@H](C)C(=O)O[C@@H]3O[C@@]4(C)CC[C@@H]1[C@]32OO4` [Artemisinin] (10 µM) as the compound, how does the “kinase-Nluc reporter destabilization hit call” value read?
A: The value was inactive: 0.

Q: How did the “kinase-Nluc reporter destabilization hit call” value turn out when `N#CC(C#N)=Cc1ccc([N+](=O)[O-])c(O)c1` (10 µM) was run?
A: Its value is inactive: 0.

Q: `C[C@H](CCC(=O)O)C[C@H](C)C[C@H](C)C(=O)/C=C(\O)[C@H](C)C[C@H](C)C/C=C/[C@@H](C)[C@@H](O)[C@@H](C)[C@@H](O)C[C@@H]1CC[C@@](C)([C@H]2CC[C@@](C)([C@@H](C)O)O2)O1` [Ionomycin (calcium)] (2.5 µM) was tested. Which “kinase-Nluc reporter destabilization hit call” value did it give?
A: Its value is inactive: 0.

Q: With `CC1C(=O)OC2C(O)C34C5OC(=O)C3(OC3OC(=O)C(O)C34C(C(C)(C)C)C5O)C12O` (centres undefined) [Ginkgolide C] (10 µM) as the compound, how does the “kinase-Nluc reporter destabilization hit call” value read?
A: Its value is inactive: 0.

Q: `Cn1cc(C2=C(c3cn(C4CCN(Cc5ccccn5)CC4)c4ccccc34)C(=O)NC2=O)c2ccccc21` [Enzastaurin] (10 µM) was tested. Which “kinase-Nluc reporter destabilization hit call” value did it give?
A: The value was inactive: 0.

Q: Which “kinase-Nluc reporter destabilization hit call” value does the source give for `O=c1[nH]c2ccccc2n1C1CCN(Cc2ccc(-c3[nH]c4cc5ncnc5cc4nc3-c3ccccc3)cc2)CC1` [AKT inhibitor VIII] (2.5 µM) here?
A: Its value is inactive: 0.

Q: Which “kinase-Nluc reporter destabilization hit call” value does the source give for `CCN1CCN(C(=O)Cc2ccc(Nc3ncc(F)c(Nc4ccc(C(=O)Nc5ccccc5Cl)cc4)n3)cc2)CC1` (2.5 µM) here?
A: The value was inactive: 0.

Q: With `C=CC(=O)N[C@H]1C=C(C)c2c(-c3cnc4ccccc4c3)c3c(N)ncnc3n2C1` (10 µM) as the compound, how does the “kinase-Nluc reporter destabilization hit call” value read?
A: The value was inactive: 0.

Q: Which “kinase-Nluc reporter destabilization hit call” value does the source give for `CC(C)(C)c1cc(C=C(C#N)C#N)cc(Br)c1O` (2.5 µM) here?
A: Its value is inactive: 0.

Q: How did the “kinase-Nluc reporter destabilization hit call” value turn out when `CCCCNc1nc(N)c2[nH]c(=O)n(Cc3ccc(C)nc3)c2n1` (10 µM) was run?
A: The value was inactive: 0.

Q: How did the “kinase-Nluc reporter destabilization hit call” value turn out when `C=CC(=O)Nc1ccc2[nH]c(=O)n(C3CCN(Cc4ccc(-c5nc6cc[nH]c(=O)c6cc5-c5ccccc5)cc4)CC3)c2c1` [Borussertib] (10 µM) was run?
A: Its value is inactive: 0.

Q: How did the “kinase-Nluc reporter destabilization hit call” value turn out when `COc1ccc(N(C(=O)Oc2c(C)cccc2C)c2ccnc(Nc3ccc(N4CCN(C)CC4)cc3)n2)c(OC)c1` (2.5 µM) was run?
A: Its value is inactive: 0.

Q: How did the “kinase-Nluc reporter destabilization hit call” value turn out when `COc1ccc2c(c1)[nH]c1c(C)nccc12` [Harmine] (10 µM) was run?
A: Its value is inactive: 0.

Q: `O=c1cc(O)c2ccccc2o1` [4-Hydroxycoumarin] (10 µM) was tested. Which “kinase-Nluc reporter destabilization hit call” value did it give?
A: Its value is inactive: 0.

Q: Which “kinase-Nluc reporter destabilization hit call” value does the source give for `CC(=O)c1c(O)c(C)c(O)c(Cc2c(O)c3c(c(C(=O)/C=C/c4ccccc4)c2O)OC(C)(C)C=C3)c1O` [Rottlerin] (2 µM) here?
A: The value was inactive: 0.

Q: For `C/C(O)=C(\C#N)C(=O)Nc1cc(Br)ccc1Br` (10 µM), which “kinase-Nluc reporter destabilization hit call” value is on record?
A: The value was inactive: 0.

Q: How did the “kinase-Nluc reporter destabilization hit call” value turn out when `Cc1ccccc1-n1c(Cn2ncc3c(N)ncnc32)nc2cccc(C)c2c1=O` (10 µM) was run?
A: The value was inactive: 0.

Q: `COc1ccc2c(c1)/C(=C/c1cnc[nH]1)C(=O)N2` (2.5 µM) was tested. Which “kinase-Nluc reporter destabilization hit call” value did it give?
A: Its value is inactive: 0.

Q: Which “kinase-Nluc reporter destabilization hit call” value does the source give for `O=[N+]([O-])/C=C/c1ccc2c(c1)OCO2` (2.5 µM) here?
A: Its value is inactive: 0.
